According to article PMC10457402:
These are yes or no findings as the source states them, for the method shown. In cells and extracts the contact can be indirect. Some entries that bind do so weakly or less than the wild type.

Chains of the proteins cited; added tags and fusions are not shown.
UniProt Q9BUL5: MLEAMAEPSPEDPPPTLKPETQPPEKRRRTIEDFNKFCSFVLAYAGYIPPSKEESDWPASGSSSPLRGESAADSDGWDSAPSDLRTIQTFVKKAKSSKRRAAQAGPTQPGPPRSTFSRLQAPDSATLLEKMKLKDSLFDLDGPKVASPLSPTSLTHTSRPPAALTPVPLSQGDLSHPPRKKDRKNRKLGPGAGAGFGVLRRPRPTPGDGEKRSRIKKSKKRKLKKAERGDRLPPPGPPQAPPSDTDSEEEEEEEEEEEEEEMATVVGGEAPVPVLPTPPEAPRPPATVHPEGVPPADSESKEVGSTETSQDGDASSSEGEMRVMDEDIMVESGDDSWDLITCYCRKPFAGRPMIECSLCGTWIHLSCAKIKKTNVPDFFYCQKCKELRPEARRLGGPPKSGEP
UniProt O43707: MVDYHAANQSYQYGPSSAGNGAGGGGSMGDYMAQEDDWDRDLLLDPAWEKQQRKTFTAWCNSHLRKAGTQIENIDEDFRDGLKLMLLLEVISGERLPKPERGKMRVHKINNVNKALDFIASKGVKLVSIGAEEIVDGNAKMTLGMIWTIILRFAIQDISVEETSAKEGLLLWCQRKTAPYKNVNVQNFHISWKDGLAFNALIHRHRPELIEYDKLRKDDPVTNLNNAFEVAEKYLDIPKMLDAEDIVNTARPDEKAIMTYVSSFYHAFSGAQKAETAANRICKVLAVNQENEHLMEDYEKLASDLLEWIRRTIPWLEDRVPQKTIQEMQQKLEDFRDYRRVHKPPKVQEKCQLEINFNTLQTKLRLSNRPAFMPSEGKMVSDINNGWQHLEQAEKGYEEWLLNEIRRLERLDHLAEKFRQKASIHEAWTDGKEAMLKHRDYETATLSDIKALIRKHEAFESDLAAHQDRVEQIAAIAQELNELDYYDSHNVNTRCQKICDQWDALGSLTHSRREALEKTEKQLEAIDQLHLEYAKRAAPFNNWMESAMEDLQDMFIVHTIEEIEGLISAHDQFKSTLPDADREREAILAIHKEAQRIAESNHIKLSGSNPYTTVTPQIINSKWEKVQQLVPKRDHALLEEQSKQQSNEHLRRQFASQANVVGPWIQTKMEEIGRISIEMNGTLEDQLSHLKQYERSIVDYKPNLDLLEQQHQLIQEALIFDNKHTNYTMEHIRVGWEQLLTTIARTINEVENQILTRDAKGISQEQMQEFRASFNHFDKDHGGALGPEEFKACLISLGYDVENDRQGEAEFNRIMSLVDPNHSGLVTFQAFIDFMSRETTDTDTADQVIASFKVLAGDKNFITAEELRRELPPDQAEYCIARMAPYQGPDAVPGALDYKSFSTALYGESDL
UniProt Q9H0F5: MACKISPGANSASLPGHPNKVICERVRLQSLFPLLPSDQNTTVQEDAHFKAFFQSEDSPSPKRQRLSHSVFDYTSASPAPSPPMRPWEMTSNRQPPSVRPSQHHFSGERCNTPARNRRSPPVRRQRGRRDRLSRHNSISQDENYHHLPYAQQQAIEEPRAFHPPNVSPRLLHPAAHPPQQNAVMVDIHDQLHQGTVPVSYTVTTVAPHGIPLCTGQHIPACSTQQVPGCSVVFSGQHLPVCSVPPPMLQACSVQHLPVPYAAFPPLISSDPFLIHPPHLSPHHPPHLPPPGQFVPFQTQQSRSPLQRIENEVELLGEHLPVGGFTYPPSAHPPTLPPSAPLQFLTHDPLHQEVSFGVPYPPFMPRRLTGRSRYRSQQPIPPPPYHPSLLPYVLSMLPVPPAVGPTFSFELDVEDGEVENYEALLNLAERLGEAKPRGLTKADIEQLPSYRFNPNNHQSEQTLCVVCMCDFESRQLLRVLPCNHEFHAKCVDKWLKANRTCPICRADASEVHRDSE

Assays:
[1] = biological target: PHF23 expressed from the PHF23 cDNA plasmid (myc-tag) (human) (UniProt Q9BUL5); assay: co-IP; A549 and H1299 cells transfected with PHF23 or PHF23-ΔPHD cDNA (myc-tag); immunoblot for ACTN4
[2] = biological target: Plant homologous structural domain finger protein 23 (PHF23) (human) (UniProt Q9BUL5); assay: co-IP; A549 and H1299 cells after separation of nuclear and cytoplasmic proteins; co-immunoprecipitation from the fractions
[3] = biological target: Plant homologous structural domain finger protein 23 (PHF23) (human) (UniProt Q9BUL5); assay: co-IP; A549 and H1299 cell lysates; target antibody (6 µg) or anti-rabbit IgG overnight at 4 °C, protein A/G beads, immunoblot
[4] = biological target: Alpha-actinin-4 (ACTN4) (human (endogenous in H1299 and A549)) (UniProt O43707); assay: co-IP; endogenous ACTN4 and RNF38 in NSCLC cells
[5] = biological target: Alpha-actinin-4 (ACTN4) (human (endogenous in H1299 and A549)) (UniProt O43707); assay: co-IP; quantitative IP in A549 and H1299 cells with increasing PHF23 overexpression

binding [1] | binding [2] | binding [3] | binding [4] | binding [5] | Substance
binds | binds | binds | – | – | Alpha-actinin-4 (ACTN4) (from UniProt O43707 1-911)
– | – | – | binds | binds | RING finger protein 38 (RNF38) (from UniProt Q9H0F5 1-515)
